Data taken from PubChem BioAssay AID1159506, deposited by NCATS (2015).

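Luminescence from an EWS-FLI1 target-promoter (NR0B1) reporter, set against a CMV-promoter reporter, two days after silencing single genes in TC32 Ewing sarcoma cells.
Each siRNA was applied at 20 nM.
A z-score of the log NR0B1-over-CMV signal, less the median of siRNAs with the same seed; more negative means a stronger specific loss of the NR0B1 reporter.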

This is part of the screen; most of the strongest results are not listed here.
Sequences are the guide (antisense) strand, without overhang.

Sequence,target gene,seed-corrected z-score
UCAGGUCCAAGGUGUGAGG,C11orf84,-0.03789
UUCGUCUUACAAGUUUUCC,IL1RAPL2,0.06389
UCCCUGAAUACCACGCCUG,APRT,-0.3418
UGUCAAACCACUCCAGAUC,LOC644277,1.272
UAGGAAAAUCUAGAGCACC,RGMB-AS1,0.5448
AUUCUUUUGACCGAGGGCU,STMN1,-0.8405
UUACGUUCAAACACUCACU,COMMD5,-0.4323
UACAUAAAUAUGCAAGGUC,OR4C16,0.538
AACACGUUACAGGCCCUCC,AKR1B10,-1.296
UCCAUGUACCUAGAUAUUC,ADCY10,0.5579
AUAGGUAUAAAAUAGUCUG,XKR9,0.165
UCAGGAACUCCGGGAAGUC,CALM3,0.7662
UGAGAAAUCCUCCCAAAGC,IFFO1,-0.4312
UCUCAUUUCAAUGACGGGC,BTN2A3P,0.05157
UGCACCAACAUGUCUGUGC,FAM179A,1.127
UGAGUAAUCGAUCUGUCCG,ZNF740,-0.1039
UAAGUUUGAAUCCCUGGUC,LRRIQ4,0.6459
UAUUCGAACACCAUUAUUG,LECT2,0.8194
UAUGAGUUCUAGUUUGAUC,COX7C,-0.5135
UUUUAUCUUGGAAACCUUG,ICA1,1.341
UGCCUUGCAAUCAGCUUCU,CEP131,-0.9167
UGUUGAGCAAGGGAUGACC,ZNF184,-0.3775
UGCAAUCUCAGGGAUGUCC,EDC4,0.09004
UUUGGAUGCGUUCUCCUGG,LRRC38,0.5115
AAAGGUCCAAGUGCUCUAG,TLR4,0.5499
UAGGGAAAGAGUGGACCCG,ENHO,-0.3975
UCUCGUUAAUACGCGCUCG,HES4,-0.2729
UGAUUGUUCGGAAUCUUUC,RAB8B,0.2757
UGCUCAGACACUCAUCUGC,LOC728805,0.7191
UUCAUGGAAUUAUUCUUCU,NABP1,-0.6214
AAAGCUUCAAUCCGACUUC,FEM1B,-0.003631
UUUAUUAGCAUGCAGGGCC,TMEM205,-0.6386
UACGGUAGAGUUCAAGUUC,HMGB4,-1.51
AGUGUGAUCACAGAGAGCC,RUSC1,-1.414
UUACUGUUAACUCGGAUUC,SLC4A1AP,-0.948
UGACAUCCAAGAGAUCGGC,ZGRF1,0.7255
UGAGUGUAAGACAAAAUGA,OR7G2,0.4452
UUUCUUGAAUGUUUGAGAC,NACA3P,0.5187
UCCAUCGUAAUUUCUUCCC,TOR3A,-0.3684
UAACUGGUUGGGUCUGUGG,OAT,-0.1895
UUGCCUUGGACUUUCACUG,VSTM2A,-0.6365
UUGCCUCUCAUGAAGAUCA,MAGEB6P1,-0.7884
UUCCCAGACAGAAUACAGG,TMEM116,-0.3691
UUCCUUCAAAGACCUUAUG,GPI,-0.3417
UUGCGUUGGAUUAGGUUAG,FAM166A,0.1963
UUACAUCUUCCGUGGAGGC,ZNF746,0.01434
AAAUAGUCACUAAAAACUG,CCPG1,0.9345
UGAGUGGUAGAGAGUCUGU,KAZN,-0.272
AUCUUUCUCUGAUCAAUGC,YARS,0.3305
UCAGAUAGUAAAAACGGCC,HAPLN1,0.827
UUCGUAAGCAAAUUCUGUC,RFTN2,0.1577
UUUGUAUCCAUUAUUAACC,EIF2A,-0.5394
AUCUUUAGAACAUUGACCG,CACNG5,-1.589
AUGGAUCUGAAGUAAGGGC,KBTBD8,0.3832

6 of the entries, repeated:

- UAUGAGUUCUAGUUUGAUC against COX7C | seed-corrected z-score -0.5135
- UGUCAAACCACUCCAGAUC against LOC644277 | seed-corrected z-score 1.272
- UCCAUGUACCUAGAUAUUC against ADCY10 | seed-corrected z-score 0.5579
- UUACUGUUAACUCGGAUUC against SLC4A1AP | seed-corrected z-score -0.948
- UAAGUUUGAAUCCCUGGUC against LRRIQ4 | seed-corrected z-score 0.6459
- UGAGUAAUCGAUCUGUCCG against ZNF740 | seed-corrected z-score -0.1039